These are yes or no findings as the source states them, for the method shown. In cells and extracts the contact can be indirect. For some of these results: A result given as binding can be weak or reduced; the word gives no strength.
Columns and labels:
[1] = target: FLAG-tagged OcPV1 E6 (Oryctolagus cuniculus papillomavirus 1) (UniProt Q9J032); test: co-IP; 293T cells co-transfected with myc-MAML3, HA-MAML1, HA-MAML2, HA-E6AP_Ub-, HA-GFP and FLAG-E6; FLAG antibody beads
[2] = target: FLAG-tagged OaPV3 E6 (Ovies aries papillomavirus 3) (UniProt D5FL25); test: co-IP; FLAG-E6 co-expressed in 293T cells with an excess of both HA-E6AP_Ub- and HA-MAML1 (and HA-GFP); lysed 18 hrs later in 0.5X IGEPAL lysis buffer; anti-FLAG M2 beads 1 hr; blots with anti-HA and anti-FLAG
[3] = target: FLAG-tagged McPV2 E6 (Mastomys coucha papillomavirus 2) (UniProt Q06RH5); test: as above
[4] = target: FLAG-tagged OcPV1 E6 (Oryctolagus cuniculus papillomavirus 1) (UniProt Q9J032); test: as above

By UniProt entry, the sequences of proteins in these tests, tags left out.
UniProt Q96JK9: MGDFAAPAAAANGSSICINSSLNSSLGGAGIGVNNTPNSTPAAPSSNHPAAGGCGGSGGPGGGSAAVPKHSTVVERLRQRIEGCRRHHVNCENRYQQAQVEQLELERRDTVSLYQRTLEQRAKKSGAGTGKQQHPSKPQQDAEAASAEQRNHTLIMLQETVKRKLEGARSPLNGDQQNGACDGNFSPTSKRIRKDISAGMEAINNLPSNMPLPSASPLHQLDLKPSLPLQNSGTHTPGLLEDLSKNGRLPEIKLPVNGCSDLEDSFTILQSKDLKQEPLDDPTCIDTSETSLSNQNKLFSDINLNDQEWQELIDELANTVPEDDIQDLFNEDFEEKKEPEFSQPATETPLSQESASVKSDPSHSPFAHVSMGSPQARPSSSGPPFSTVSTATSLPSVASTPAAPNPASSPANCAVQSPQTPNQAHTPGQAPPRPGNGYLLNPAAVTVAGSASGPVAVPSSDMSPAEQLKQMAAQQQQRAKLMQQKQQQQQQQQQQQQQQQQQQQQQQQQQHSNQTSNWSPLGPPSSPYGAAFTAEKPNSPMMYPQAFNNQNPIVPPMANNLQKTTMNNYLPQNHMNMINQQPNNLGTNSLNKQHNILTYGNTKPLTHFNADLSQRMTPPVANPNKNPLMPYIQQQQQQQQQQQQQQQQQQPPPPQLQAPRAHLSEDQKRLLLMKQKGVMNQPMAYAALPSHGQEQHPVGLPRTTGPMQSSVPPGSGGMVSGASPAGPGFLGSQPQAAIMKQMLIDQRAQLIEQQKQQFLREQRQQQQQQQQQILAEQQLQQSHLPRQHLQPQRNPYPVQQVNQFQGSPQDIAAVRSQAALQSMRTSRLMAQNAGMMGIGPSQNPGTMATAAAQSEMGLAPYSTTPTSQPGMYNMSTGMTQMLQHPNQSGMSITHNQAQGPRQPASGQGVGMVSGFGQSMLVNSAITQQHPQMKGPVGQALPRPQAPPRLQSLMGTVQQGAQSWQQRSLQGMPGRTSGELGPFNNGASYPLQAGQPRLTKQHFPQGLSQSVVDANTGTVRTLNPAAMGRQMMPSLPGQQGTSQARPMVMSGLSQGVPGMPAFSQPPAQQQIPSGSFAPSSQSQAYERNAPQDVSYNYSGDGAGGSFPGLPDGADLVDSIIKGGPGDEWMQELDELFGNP
UniProt Q92585: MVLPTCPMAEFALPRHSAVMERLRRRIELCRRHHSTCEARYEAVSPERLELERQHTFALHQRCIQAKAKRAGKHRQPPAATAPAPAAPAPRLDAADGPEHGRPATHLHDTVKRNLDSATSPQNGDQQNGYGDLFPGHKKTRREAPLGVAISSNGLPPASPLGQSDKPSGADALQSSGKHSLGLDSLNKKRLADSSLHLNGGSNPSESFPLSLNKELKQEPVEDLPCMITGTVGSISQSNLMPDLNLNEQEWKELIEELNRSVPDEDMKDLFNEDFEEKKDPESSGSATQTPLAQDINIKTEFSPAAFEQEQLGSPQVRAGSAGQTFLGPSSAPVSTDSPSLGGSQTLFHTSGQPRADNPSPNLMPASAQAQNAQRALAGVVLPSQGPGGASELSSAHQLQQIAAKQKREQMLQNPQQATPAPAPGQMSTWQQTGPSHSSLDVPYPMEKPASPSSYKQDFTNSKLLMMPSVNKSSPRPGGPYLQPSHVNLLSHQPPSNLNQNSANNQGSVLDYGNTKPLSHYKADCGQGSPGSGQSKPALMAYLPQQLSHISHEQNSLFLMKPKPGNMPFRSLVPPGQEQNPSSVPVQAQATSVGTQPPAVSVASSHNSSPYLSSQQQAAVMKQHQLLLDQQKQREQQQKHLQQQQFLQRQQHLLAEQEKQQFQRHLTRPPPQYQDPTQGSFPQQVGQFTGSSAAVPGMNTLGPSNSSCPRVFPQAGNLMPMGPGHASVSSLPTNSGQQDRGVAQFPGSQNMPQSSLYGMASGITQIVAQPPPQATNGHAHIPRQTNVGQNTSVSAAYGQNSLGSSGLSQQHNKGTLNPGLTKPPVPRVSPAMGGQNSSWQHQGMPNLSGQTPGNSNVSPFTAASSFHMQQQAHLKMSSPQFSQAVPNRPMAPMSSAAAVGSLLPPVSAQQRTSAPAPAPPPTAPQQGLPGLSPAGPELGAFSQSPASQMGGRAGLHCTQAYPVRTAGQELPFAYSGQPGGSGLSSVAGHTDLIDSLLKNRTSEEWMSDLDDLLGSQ

Substance	binding [1]	binding [2]	binding [3]	binding [4]
myc-MAML3 (from UniProt Q96JK9 1-1138)	no binding			
HA-tagged MAML1 (from UniProt Q92585 1-1016)		binds	binds weakly	no binding
